Results from one PubChem assay

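Genome-wide siRNA knockdown in TC32 Ewing sarcoma cells, comparing luciferase light from an NR0B1-promoter reporter with a CMV-promoter reporter 48 hours after transfection.
Each siRNA was applied at 20 nM.
A z-score of the log NR0B1-over-CMV signal, less the median of siRNAs with the same seed; more negative means a stronger specific loss of the NR0B1 reporter.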

The strongest results of the screen are mostly left out here.
Sequences are the guide (antisense) strand, without overhang.

| Sequence | gene | seed-corrected z-score |
|---|---|---|
| `AAUGUGGUAAUUCAAAGUG` | MUC7 | -0.9769 |
| `UCCCGAAUAUGAGAAGAUC` | SNX8 | 0.2001 |
| `UUCAUAUCUGCUGCCCUGG` | TCL1B | -1.344 |
| `AAAGUUUUCCAUUCCCAGG` | FAM110B | 0.2096 |
| `UAUUCGAUUGUCACACGGC` | ALDH9A1 | -0.6792 |
| `UCUUUUCCAAUAAGAUACC` | BVES | -0.3242 |
| `UGAGUCAUCCACUUGAUGU` | AKAP14 | -0.1647 |
| `AUAGUUAUGCAGGUACUCC` | MAST3 | -0.873 |
| `UUGGUGACUACUACUGCCU` | PRPS1 | 0.2223 |
| `UCUGUAUUCAUGAAGCUUA` | S100A11P1 | -0.08085 |
| `UCCAGGUGCAGCAAGAUCC` | KRT18P8 | 0.0001158 |
| `AAAGUCCAUAAAUCGCACG` | AGRN | 0.639 |
| `AAAAUAGUCCUCACAAUCC` | ANXA13 | 0.129 |
| `UAAACAUCUCGGGACAAGC` | RET | -0.9912 |
| `UAAAUGCUCCCGGUCAGGA` | TULP2 | 0.8764 |
| `UGAUGUAUUCUGAACGAGG` | TPP2 | -1.239 |
| `UACACGAUCAUGUUCUCCU` | NADK | -0.5375 |
| `UGAGUAUUCAGGGCUGGAG` | FGF14-IT1 | -0.274 |
| `UGUUGUCCAUCUUUUAGGG` | RFX8 | 0.04483 |
| `UUGCAUUUGAGUUGACUGC` | ADARB2 | -0.4011 |
| `UAGAAUAAUAGUGUUUAGC` | LRP2BP | -0.1915 |
| `UUUUGGGCAACAUUCACUA` | CLDN8 | 1.777 |
| `UCAUAGUCCAGGAGAACUG` | KIR3DP1 | -1.5 |
| `UGCUGAAUCAGCGUGGAGU` | ZNF205 | -0.4839 |
| `UGAAGUAUCAGGGUCUGGG` | MEF2A | 0.1806 |
| `AAUUUUGCAAUCCAAACUC` | RGS7BP | 0.4329 |
| `UUUCGGAUAACUAAAACUC` | SRFBP1 | 0.0006996 |
| `AGAUAAACAAAUUAGAAGC` | GTF2IP20 | 0.2384 |
| `UAACAAGCAGCGAUAAGUG` | SCAPER | 1.432 |
| `AAAAUGAUGGAUACGGUUG` | OR12D2 | 0.03628 |
| `UCCUUUGUAGAUUCCAUUG` | UAP1 | -0.1039 |
| `UCUGGAUCUCCCUCGAAGU` | HIST1H2BM | 1.2 |
| `UCAGCUGCCUUCUCCGUUC` | LGALS9 | -0.9536 |
| `UUAGAUCUCAGAAGAGCAC` | SLC25A40 | -0.5911 |
| `AAGCUAAGCAGCUCCGUGG` | RASIP1 | 0.3855 |
| `UUCGCUCACAGGGUUCUGC` | OBSCN | 0.07854 |
| `AUCGUGACAAGAUCUACGC` | HAND2-AS1 | 1.226 |
| `UGCAGGUCCAUGAACAGGG` | TMEM97 | 0.9434 |
| `AGAAUGAAAAACACGGUUG` | SERPINA4 | -0.9809 |
| `UCUAGGUCCAGCUUCAUCU` | TWF2 | 0.1325 |
| `UUUAAUGUUCUGUUGAUUC` | CGNL1 | -0.3477 |
| `UUAAGUACUCCUUAGAAGC` | GZF1 | -1.741 |
| `UAUCCAACAUCCGAUCAGC` | DDX3X | -0.2611 |
| `UUGAGUCUCCGUUUCUUCC` | DPF1 | -0.6923 |
| `UAUAGAUGAAAAGUAAAGG` | OR6K3 | -0.275 |
| `AAAUCGUUUUGUAAUGUCC` | ZFYVE9 | 0.8655 |
| `UAUUAAGACACUACCUAUG` | OR5K1 | 0.3357 |
| `UGAAUUAUCAAUACUCUCG` | PI4KB | -0.3067 |
| `UUAGACAUUCUUUCAAUGC` | CMC1 | -0.5007 |
| `UAAAUGUCAUUGGGUCUCC` | POP7 | -0.4033 |

The last 5 entries again:

* AAAUCGUUUUGUAAUGUCC against ZFYVE9 | seed-corrected z-score 0.8655
* UAUUAAGACACUACCUAUG against OR5K1 | seed-corrected z-score 0.3357
* UGAAUUAUCAAUACUCUCG against PI4KB | seed-corrected z-score -0.3067
* UUAGACAUUCUUUCAAUGC against CMC1 | seed-corrected z-score -0.5007
* UAAAUGUCAUUGGGUCUCC against POP7 | seed-corrected z-score -0.4033

The results are deposited in PubChem (AID1159506; NCATS, 2015).